Laboratory results: PubChem BioAssay AID504786 (Drosophila RNAi Screening Center, 2011)

- Aim: 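Knock-downs reducing HIF reporter induction by the iron chelator DFO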 (primary screen)
- Cells: Drosophila S2 cells with a stable HIF luciferase reporter
- Reagent: long dsRNA against Drosophila genes, about 0.2 µg dsRNA per well of a 384-well plate
- Duration: three days of knock-down, then 20 h of DFO before reading
- Conditions: desferrioxamine (DFO) at 100 µM, an iron chelator that mimics hypoxia, for 20 h
- Measured: 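HIF reporter luminescence in cells given 100 µM DFO for 20 h, using the mouse ldh-a hypoxia-response element, scored as per-plate z-scores; higher means greater loss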
- Direction: z-score: higher = stronger loss of HIF reporter signal
In all, the deposit lists about 21,000 reagents; this is a random part of those that have a named target and a result. 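Primary screen; positive scores mean lost reporter signal, so the sign may be inverted from the usual convention.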 Further read-outs or replicates are left out here.

The first 3 entries as a preview:
Gene,amplicon,"z-score, replicate 1","z-score, replicate 2","z-score, replicate 3"
CG13310,DRSC09981,-0.3,-0.3,
CG30274,DRSC04171,-0.4,0.1,
CG33013 (retired record),DRSC06286,-0.2,-0.2,

The list itself, repeating the preview:
Gene,amplicon,"z-score, replicate 1","z-score, replicate 2","z-score, replicate 3"
CG13310,DRSC09981,-0.3,-0.3,
CG30274,DRSC04171,-0.4,0.1,
CG33013 (retired record),DRSC06286,-0.2,-0.2,
Mer,DRSC20259,-0.6,-1.1,
CG31661,DRSC00296,-0.4,-0.2,
CG9921,DRSC20220,-0.4,-0.3,
CG3335,DRSC10358,0,1.9,
Flacc,DRSC20040,-0.5,-0.2,
aqz,DRSC16570,-0.3,-1.3,
Corp,DRSC17771,-0.3,0.2,
CG8635,DRSC07226,-0.4,-0.3,
mRpS11,DRSC15732,0.2,0,
qless,DRSC15103,0.7,0.4,
qless,DRSC15507,0.6,1,
Vps15,DRSC16553,-0.3,-0.6,
CG11227,DRSC20476,-0.2,-0.5,
CG14710,DRSC14933,-0.4,-0.6,
EloC,DRSC07423,1.7,1.6,
CG13313,DRSC09984,-0.3,-0.3,
zip,DRSC04725,-0.4,-0.4,-0.5
CG2993,DRSC14284,-0.3,-0.6,
CG2993,DRSC15457,-0.1,0.2,
Mps1,DRSC16273,-0.1,-0.1,
YME1L,DRSC04378,-0.2,-0.6,
Klp67A,DRSC11205,-0.2,0.1,
Gle1,DRSC06485,-0.3,-0.4,
CG10345,DRSC14138,-0.3,-0.4,
kon,DRSC02033,-0.4,0.1,
AOX1,DRSC15339,0.2,1.4,
CG33230,DRSC08602,-0.1,-0.2,
Wnt6,DRSC02795,-0.3,-0.5,
CG14265,DRSC18591,-0.3,-0.5,
CG4306,DRSC10409,-0.2,0.7,
AnxB9,DRSC14111,-0.2,-0.4,
